From paper PMC5622495 come the findings set out here.

Amino acid sequences for entries named in this document (tags omitted).
UniProt Q6W2J9: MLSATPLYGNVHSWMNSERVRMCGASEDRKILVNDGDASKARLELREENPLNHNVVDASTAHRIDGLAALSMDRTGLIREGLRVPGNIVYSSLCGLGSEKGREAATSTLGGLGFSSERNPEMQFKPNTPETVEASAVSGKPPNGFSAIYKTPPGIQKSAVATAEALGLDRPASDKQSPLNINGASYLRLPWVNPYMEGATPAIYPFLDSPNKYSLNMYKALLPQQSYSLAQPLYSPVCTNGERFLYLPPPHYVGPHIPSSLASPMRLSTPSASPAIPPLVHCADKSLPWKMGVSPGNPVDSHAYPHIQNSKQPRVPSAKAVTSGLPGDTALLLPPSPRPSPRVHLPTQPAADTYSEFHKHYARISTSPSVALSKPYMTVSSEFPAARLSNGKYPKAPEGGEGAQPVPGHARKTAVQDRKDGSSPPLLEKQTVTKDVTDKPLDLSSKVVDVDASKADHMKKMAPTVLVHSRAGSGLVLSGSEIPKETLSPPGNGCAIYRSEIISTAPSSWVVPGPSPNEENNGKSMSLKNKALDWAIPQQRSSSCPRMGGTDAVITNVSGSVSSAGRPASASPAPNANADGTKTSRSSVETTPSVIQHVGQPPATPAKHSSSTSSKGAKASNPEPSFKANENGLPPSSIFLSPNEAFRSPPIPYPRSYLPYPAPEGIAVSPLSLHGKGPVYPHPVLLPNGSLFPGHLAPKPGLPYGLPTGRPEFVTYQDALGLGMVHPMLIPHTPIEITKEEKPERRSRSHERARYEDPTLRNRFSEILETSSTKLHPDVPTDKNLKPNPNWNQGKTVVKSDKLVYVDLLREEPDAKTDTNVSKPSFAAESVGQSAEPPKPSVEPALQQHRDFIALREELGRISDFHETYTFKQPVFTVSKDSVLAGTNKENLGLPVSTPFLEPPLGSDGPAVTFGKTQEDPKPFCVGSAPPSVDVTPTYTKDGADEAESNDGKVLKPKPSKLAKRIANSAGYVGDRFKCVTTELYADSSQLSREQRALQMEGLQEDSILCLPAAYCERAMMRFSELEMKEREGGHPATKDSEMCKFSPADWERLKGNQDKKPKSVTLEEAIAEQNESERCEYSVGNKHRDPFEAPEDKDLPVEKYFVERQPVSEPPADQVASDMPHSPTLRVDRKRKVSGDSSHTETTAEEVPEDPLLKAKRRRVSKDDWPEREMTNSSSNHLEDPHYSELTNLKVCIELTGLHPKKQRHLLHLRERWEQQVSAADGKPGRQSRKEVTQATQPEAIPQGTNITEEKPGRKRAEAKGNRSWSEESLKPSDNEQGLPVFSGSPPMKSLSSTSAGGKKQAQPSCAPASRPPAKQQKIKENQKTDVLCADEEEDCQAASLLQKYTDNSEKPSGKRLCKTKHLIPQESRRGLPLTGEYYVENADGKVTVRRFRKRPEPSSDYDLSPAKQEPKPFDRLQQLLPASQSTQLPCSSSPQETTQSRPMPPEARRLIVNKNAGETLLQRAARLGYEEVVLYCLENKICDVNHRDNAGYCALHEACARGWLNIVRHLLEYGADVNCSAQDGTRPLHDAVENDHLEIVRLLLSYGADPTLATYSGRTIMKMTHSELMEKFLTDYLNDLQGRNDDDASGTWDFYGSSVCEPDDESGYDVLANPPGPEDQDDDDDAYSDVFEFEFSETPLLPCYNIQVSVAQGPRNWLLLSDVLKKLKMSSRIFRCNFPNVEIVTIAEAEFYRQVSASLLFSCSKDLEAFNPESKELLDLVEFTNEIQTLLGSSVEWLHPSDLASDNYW
UniProt O15054: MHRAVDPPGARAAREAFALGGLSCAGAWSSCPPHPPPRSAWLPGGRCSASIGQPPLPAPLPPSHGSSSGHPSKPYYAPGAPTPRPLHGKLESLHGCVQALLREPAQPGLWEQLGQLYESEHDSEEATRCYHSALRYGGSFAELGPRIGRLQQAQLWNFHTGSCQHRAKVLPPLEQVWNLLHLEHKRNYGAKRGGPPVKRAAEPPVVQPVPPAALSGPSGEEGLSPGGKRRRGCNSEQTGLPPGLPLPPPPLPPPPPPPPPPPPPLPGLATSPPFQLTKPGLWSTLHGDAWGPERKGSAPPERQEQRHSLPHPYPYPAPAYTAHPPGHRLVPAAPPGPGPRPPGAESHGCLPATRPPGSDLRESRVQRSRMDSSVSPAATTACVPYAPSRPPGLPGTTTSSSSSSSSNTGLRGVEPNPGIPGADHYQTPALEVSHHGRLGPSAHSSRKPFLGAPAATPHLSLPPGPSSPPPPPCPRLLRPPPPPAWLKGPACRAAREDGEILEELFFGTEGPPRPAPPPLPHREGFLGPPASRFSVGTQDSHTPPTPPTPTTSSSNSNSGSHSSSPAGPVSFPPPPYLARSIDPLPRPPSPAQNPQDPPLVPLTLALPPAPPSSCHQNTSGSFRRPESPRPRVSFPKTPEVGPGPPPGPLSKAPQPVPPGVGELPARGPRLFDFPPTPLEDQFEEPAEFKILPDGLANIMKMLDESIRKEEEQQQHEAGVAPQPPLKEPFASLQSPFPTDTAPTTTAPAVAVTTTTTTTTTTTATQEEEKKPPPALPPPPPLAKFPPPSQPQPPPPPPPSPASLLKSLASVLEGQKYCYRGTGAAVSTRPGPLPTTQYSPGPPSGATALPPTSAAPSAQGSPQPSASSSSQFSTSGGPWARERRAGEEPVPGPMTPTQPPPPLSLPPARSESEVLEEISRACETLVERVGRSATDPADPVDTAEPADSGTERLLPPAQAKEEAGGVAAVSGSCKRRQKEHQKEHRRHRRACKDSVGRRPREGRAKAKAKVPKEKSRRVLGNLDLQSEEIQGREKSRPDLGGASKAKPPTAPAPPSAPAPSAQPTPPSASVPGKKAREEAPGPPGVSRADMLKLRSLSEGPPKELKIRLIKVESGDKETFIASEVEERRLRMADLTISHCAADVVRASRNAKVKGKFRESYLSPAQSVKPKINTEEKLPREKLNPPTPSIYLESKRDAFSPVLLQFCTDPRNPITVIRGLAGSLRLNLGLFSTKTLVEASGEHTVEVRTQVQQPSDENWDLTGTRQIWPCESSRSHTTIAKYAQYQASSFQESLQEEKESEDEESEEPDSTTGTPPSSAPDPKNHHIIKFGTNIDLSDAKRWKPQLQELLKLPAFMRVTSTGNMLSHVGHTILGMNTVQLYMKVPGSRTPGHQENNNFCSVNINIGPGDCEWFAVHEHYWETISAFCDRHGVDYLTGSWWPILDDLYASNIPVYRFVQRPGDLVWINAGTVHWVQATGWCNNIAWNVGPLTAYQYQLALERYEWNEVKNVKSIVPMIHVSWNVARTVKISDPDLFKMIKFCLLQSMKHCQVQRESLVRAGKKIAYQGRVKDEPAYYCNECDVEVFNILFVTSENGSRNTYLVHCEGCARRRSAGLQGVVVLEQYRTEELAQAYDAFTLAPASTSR

No constants are given. Whether binding was seen depends on the method and setting. Binding seen in cells or lysates may run through a third protein. Some binding calls cover weakened binding; strength is not graded here.

The target in this assay is HA-BCOR (human full-length BCL6 co-repressor with an HA tag) (human) (UniProt Q6W2J9). Briefly: co-IP; HA-BCOR-transduced PDLSCs lysed in cold RIPA buffer; anti-HA agarose (HA-Tag Co-IP kit), 4 °C at least 1 hour, TBS-T washes; Western blot for KDM6B.

In the case of “lysine (K)-specific demethylase 6B (KDM6B) (from UniProt O15054 1-1643)”, the binding result is “binds”.
